# Assay results taken from the supplement of paper PMC10032668.
# Sequences of proteins named here, by UniProt entry; tags and fusion partners are left off.
# APLP2, Q06481, UniProt Q06481, whole entry: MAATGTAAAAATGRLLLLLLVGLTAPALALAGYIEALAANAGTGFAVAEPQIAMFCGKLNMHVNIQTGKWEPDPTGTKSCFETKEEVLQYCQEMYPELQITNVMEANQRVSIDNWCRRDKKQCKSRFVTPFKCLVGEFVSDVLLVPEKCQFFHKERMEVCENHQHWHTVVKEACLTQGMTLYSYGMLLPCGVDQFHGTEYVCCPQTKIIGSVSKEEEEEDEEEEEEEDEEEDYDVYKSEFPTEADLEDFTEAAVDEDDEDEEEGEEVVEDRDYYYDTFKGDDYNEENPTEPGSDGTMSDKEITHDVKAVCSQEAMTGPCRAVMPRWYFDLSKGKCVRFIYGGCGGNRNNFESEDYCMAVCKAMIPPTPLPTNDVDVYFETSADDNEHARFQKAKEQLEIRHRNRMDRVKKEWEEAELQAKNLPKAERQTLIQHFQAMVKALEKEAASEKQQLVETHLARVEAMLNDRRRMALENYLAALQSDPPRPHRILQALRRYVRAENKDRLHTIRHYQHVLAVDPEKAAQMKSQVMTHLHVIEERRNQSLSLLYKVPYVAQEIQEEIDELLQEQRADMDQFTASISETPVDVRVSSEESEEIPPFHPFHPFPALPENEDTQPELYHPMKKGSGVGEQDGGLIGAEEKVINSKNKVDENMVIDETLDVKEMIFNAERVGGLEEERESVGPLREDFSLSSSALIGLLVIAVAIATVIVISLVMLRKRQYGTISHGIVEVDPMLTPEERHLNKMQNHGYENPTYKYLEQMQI
# MCM2, P49736, UniProt P49736, whole entry: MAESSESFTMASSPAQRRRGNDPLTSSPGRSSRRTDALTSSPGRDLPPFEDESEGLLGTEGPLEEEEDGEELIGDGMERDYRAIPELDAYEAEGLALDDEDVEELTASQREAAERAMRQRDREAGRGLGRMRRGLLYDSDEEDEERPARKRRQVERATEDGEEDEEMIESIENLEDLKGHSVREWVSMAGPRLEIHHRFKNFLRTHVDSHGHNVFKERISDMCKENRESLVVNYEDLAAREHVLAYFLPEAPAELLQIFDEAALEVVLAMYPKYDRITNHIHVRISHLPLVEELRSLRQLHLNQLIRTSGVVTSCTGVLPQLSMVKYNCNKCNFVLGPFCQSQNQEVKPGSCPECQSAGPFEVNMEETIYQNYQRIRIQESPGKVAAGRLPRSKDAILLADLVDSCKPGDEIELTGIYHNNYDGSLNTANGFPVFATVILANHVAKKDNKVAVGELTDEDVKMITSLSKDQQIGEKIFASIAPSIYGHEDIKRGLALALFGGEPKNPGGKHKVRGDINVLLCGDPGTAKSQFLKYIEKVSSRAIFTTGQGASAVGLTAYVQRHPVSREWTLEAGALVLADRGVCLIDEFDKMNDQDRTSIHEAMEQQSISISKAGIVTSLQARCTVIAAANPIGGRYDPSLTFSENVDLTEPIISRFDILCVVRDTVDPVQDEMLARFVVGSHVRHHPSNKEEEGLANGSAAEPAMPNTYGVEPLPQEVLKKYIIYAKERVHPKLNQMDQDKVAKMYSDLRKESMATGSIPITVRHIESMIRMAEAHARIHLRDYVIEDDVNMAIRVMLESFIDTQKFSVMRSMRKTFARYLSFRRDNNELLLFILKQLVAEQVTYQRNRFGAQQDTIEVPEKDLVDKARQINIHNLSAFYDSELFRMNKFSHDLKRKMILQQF
# HSPB1, P04792, UniProt P04792, whole entry: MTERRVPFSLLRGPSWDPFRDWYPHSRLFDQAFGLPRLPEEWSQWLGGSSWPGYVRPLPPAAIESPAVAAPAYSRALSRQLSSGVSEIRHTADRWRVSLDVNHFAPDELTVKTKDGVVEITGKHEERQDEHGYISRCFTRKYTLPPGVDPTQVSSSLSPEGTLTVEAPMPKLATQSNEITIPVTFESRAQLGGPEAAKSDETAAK
# RFC4, P35249, UniProt P35249, whole entry: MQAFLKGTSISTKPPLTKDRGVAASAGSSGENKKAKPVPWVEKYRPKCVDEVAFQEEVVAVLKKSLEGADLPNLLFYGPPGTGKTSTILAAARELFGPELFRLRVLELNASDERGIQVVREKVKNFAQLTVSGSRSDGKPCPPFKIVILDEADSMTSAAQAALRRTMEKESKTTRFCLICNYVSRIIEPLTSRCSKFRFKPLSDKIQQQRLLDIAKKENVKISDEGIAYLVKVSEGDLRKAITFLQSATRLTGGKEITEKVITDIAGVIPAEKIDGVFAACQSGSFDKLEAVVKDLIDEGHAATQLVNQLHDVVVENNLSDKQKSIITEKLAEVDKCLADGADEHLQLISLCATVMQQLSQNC
# Some of the results follow. Only hits are listed; about a third recur on repeated control peptides.
# What was measured:
# Assay in all cases: PRISMA enrichment of interactor (LFQ) in peptide spot vs all other peptide spots (log2 fold change); higher = stronger / more specific binding of the interactor to the peptide
# APLP2, Q06481 = target: APLP2, Q06481
# Procedure: (§1)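 PRISMA: 15-aa overlapping tiles (offset 8 aa) of 60 microproteins, plus SOS1/GLUT1 control peptides, were spot-synthesized on cellulose membranes in triplicate. Membranes were incubated with benzonase-treated HEK293T lysate, and bound proteins were identified by LC-MS/MS with LFQ. Enrichment is the log2 fold change of each protein in one spot versus all other spots. Only interactors passing the significance cutoff are listed.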
# CDCA7, Q9BWT1 = target: CDCA7, Q9BWT1
# Procedure: as §1
# DDX1, Q92499 = target: DDX1, Q92499
# Procedure: as §1
# EIF2B2, P49770 = target: EIF2B2, P49770
# Procedure: as §1
# EIF2D, P41214 = target: EIF2D, P41214
# Procedure: as §1
# EMD, P50402 = target: EMD, P50402
# Procedure: as §1
# MCM2, P49736 = target: MCM2, P49736
# Procedure: as §1
# MDN1, Q9NU22 = target: MDN1, Q9NU22
# Procedure: as §1
# MRPL49, Q13405 = target: MRPL49, Q13405
# Procedure: as §1
# RBM12B, Q8IXT5 = target: RBM12B, Q8IXT5
# Procedure: as §1
# SMC3, Q9UQE7 = target: SMC3, Q9UQE7
# Procedure: as §1
# ZNHIT6, Q9NWK9 = target: ZNHIT6, Q9NWK9
# Procedure: as §1
# AP2M1, Q96CW1 = target: AP2M1, Q96CW1
# Procedure: as §1
# GTF3C5, Q9Y5Q8 = target: GTF3C5, Q9Y5Q8
# Procedure: as §1
# IWS1, Q96ST2 = target: IWS1, Q96ST2
# Procedure: as §1
# MRPL3, P09001 = target: MRPL3, P09001
# Procedure: as §1
# MRPS5, P82675 = target: MRPS5, P82675
# Procedure: as §1
# [1] = substrate: PNP, P00491
# Procedure: as §1
# PRDX2, P32119 = target: PRDX2, P32119
# Procedure: as §1
# SBDS, Q9Y3A5 = target: SBDS, Q9Y3A5
# Procedure: as §1
# SFSWAP, Q12872 = target: SFSWAP, Q12872
# Procedure: as §1
# BCOR, Q6W2J9 = target: BCOR, Q6W2J9
# Procedure: as §1
# HSPB1, P04792 = target: HSPB1, P04792
# Procedure: as §1
# LSM4, Q9Y4Z0 = target: LSM4, Q9Y4Z0
# Procedure: as §1
# MAP7D3, Q8IWC1 = target: MAP7D3, Q8IWC1
# Procedure: as §1
# MPDU1, O75352 = target: MPDU1, O75352
# Procedure: as §1
# NUP50, Q9UKX7 = target: NUP50, Q9UKX7
# Procedure: as §1
# PTPN1, P18031 = target: PTPN1, P18031
# Procedure: as §1
# RAB18, Q9NP72 = target: RAB18, Q9NP72
# Procedure: as §1
# RFC4, P35249 = target: RFC4, P35249
# Procedure: as §1
# SGTA, O43765 = target: SGTA, O43765
# Procedure: as §1
# SURF4, O15260 = target: SURF4, O15260
# Procedure: as §1
# TAF15, Q92804 = target: TAF15, Q92804
# Procedure: as §1
# TMEM256-PLSCR3 = target: TMEM256-PLSCR3
# Procedure: as §1
# TOMM34, Q15785 = target: TOMM34, Q15785
# Procedure: as §1
binder,measurement,setting,value
GLECSLGRRASTCSP [SNHG8],PRISMA enrichment of interactor (log2),"APLP2, Q06481",4.87
same,PRISMA enrichment of interactor (log2),"CDCA7, Q9BWT1",4.34
same,PRISMA enrichment of interactor (log2),"DDX1, Q92499",5.89
same,PRISMA enrichment of interactor (log2),"EIF2B2, P49770",6.72
same,PRISMA enrichment of interactor (log2),"EIF2D, P41214",4.18
same,PRISMA enrichment of interactor (log2),"EMD, P50402",4.73
same,PRISMA enrichment of interactor (log2),"MCM2, P49736",5.01
same,PRISMA enrichment of interactor (log2),"MDN1, Q9NU22",4.4
same,PRISMA enrichment of interactor (log2),"MRPL49, Q13405",5.12
same,PRISMA enrichment of interactor (log2),"RBM12B, Q8IXT5",5.17
same,PRISMA enrichment of interactor (log2),"SMC3, Q9UQE7",4.53
same,PRISMA enrichment of interactor (log2),"ZNHIT6, Q9NWK9",4.1
LLHYDPVVKQRVLFV [MRPL33],PRISMA enrichment of interactor (log2),"AP2M1, Q96CW1",5.54
same,PRISMA enrichment of interactor (log2),"GTF3C5, Q9Y5Q8",4.65
same,PRISMA enrichment of interactor (log2),"IWS1, Q96ST2",5.44
same,PRISMA enrichment of interactor (log2),"MRPL3, P09001",6.32
same,PRISMA enrichment of interactor (log2),"MRPS5, P82675",8.14
same,PRISMA enrichment of interactor (log2),[1],6.84
same,PRISMA enrichment of interactor (log2),"PRDX2, P32119",4.5
same,PRISMA enrichment of interactor (log2),"SBDS, Q9Y3A5",4.92
same,PRISMA enrichment of interactor (log2),"SFSWAP, Q12872",5.12
VHLGTYFLQRSAKQS [MKKS_2],PRISMA enrichment of interactor (log2),"AP2M1, Q96CW1",6.12
same,PRISMA enrichment of interactor (log2),"BCOR, Q6W2J9",5.05
same,PRISMA enrichment of interactor (log2),"HSPB1, P04792",4.21
same,PRISMA enrichment of interactor (log2),"LSM4, Q9Y4Z0",4.21
same,PRISMA enrichment of interactor (log2),"MAP7D3, Q8IWC1",4.96
same,PRISMA enrichment of interactor (log2),"MPDU1, O75352",3.83
same,PRISMA enrichment of interactor (log2),"NUP50, Q9UKX7",4.26
same,PRISMA enrichment of interactor (log2),"PTPN1, P18031",5.92
same,PRISMA enrichment of interactor (log2),"RAB18, Q9NP72",3.67
same,PRISMA enrichment of interactor (log2),"RFC4, P35249",5.1
same,PRISMA enrichment of interactor (log2),"SGTA, O43765",4.76
same,PRISMA enrichment of interactor (log2),"SURF4, O15260",4.91
same,PRISMA enrichment of interactor (log2),"TAF15, Q92804",5.95
same,PRISMA enrichment of interactor (log2),TMEM256-PLSCR3,4.11
same,PRISMA enrichment of interactor (log2),"TOMM34, Q15785",6.12

# In another format: results already given
binder	measurement	setting	value
VHLGTYFLQRSAKQS [MKKS_2]	PRISMA enrichment of interactor (log2)	LSM4, Q9Y4Z0	4.21
same	PRISMA enrichment of interactor (log2)	MAP7D3, Q8IWC1	4.96
